Test system: cerebral infarction rats
Details: brains removed 6 hours after cerebral infarction

Question: How did the “percentage of volume of cerebral infarct to that of the entire brain, CI+D versus CI+Ve” value turn out when `COc1cc2c(cc1OC)C(=O)C(CC1CCN(Cc3ccccc3)CC1)C2.Cl` (stereo not shown) [donepezil hydrochloride, 1-benzyl-4-[(5,6-dimethoxy-1-indanone)-2-yl]methylpiperidine hydrochloride] was run?
Answer: No significant difference
